These are yes or no findings as the source states them, for the method shown. Binding seen in cells or lysates may run through a third protein. A yes stands for co-enrichment or nearness to the bait. Other partners may have been found.
B1: DnaB helicase (protein, UniProt Q1D285 1-456)
chain: MENVHEFREGRKVHEDLAAERAVLGAVLADNTLIAAVGEVVHPEDFSSPAHAQIFEAMLKLDGQSRQVDHLTLAEELKVLGHLVSVGGPAYLMRLDQVVPIASNAVQYAQIVKDQAIRRRLAQAGREIQDLASQETGELEVLLDEAERKVFLLAEKKREGDLRPVSELMEHTLDLLDKMKAAATGITGLSTGYIDLDNQLTGLHAGELIILAARPGIGKTSFAMNIAVHAALKENKAVGIFSLEMPADQLLMRLLASTARVDMKKLRGGRLTPHDEEKFQEMAGALYNAPIYIDDSGGLSPFDLRAKARRVKQRDPRLSLIVIDYLQLMHQKGKVESRQLEVAEISRALKQLAKELEVPIIALSQLSRKVEDRKDGKPLLSDLRESGSIEQDADVVMFIHRETSDEAGPDGQPAQQSNTVIPVELIIAKQRNGPIGSIDLVFLAEYTRFESRSRSE
B2: GrpS (protein, UniProt P95333 1-255)
chain: MTVIEVEASGPSTPVEAEASASPADTTSPPSDAEATPSEDVAALRQEVESLKAQLEFSQAKGRETMERLREAHERAKEAQERTVRHAADLENYRKRAQKEKEEVQRFGSEKLLKDLLPVMDNLDRAIDAAAKSPDLDSFEKGVAMTRKSFEDALGRHGVKGFSAKGQVFDPRVHEAIQQVETADVPAGHVAYEVVRGFYLNERLVRPAMVVVARAPAEPVAAAEPPAVAEPATATTDTEAPAAPAQSENSSGGSQ

Biological target: CdbS-FLAG (Myxococcus xanthus)
Test: affinity purification with mass spectrometry; in vivo pull-down from M. xanthus lysate with anti-FLAG M2 magnetic beads, HNN buffer (50mM HEPES pH 7.2, 150mM NaCl, 5mM EDTA, 0.5% NP40), 90min at 4°C; label-free quantitative MS, enrichment against GFP-FLAG (log2 ratio ≥3; P ≤0.005), four biological replicates

Row | Binder | binding
1 | B1 | binds
2 | B2 | binds
